Data set [1] addresses MBP-USF2_ΔLZ-Ext (Homo sapiens) (UniProt Q15853). The data set is described as follows: EMSA. The conditions noted are these: MBP fusion state not stated for this gel; EMSA: 100 nM Cy3-DNA, 10 mM Tris pH 8.0, 50 mM KCl, 1 mM DTT, 2 mM MgCl2, 5% glycerol, 4 C, 2 h; recombinant protein; residues 235-292; protein details: 6xHis-MBP N-terminal; label: 5'-Cy3 on one strand. (In general: A gel shift assay detects complexes by their altered migration in electrophoresis.)

The chains behind the UniProt entries cited, without tags or fusion partners. Residues count along the entry.
UniProt Q15853, 235-292, stated change not applied: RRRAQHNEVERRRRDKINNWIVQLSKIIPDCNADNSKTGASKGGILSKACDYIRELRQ
UniProt Q15853, 235-346 Q334A: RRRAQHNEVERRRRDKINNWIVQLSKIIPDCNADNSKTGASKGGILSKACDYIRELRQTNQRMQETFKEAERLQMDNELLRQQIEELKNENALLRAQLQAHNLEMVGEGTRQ

The target of data set [2] is USF2_Q334A (Homo sapiens) (UniProt Q15853). The data set is described as follows: fluorescence anisotropy. As to conditions: FA: 20 nM FAM-DNA, 20 mM Tris pH 8.0, 50 mM KCl, 2 mM MgCl2, 0.5% glycerol, 4 C, 3 h; recombinant protein; residues 235-346; label: 5'-FAM on strand 1. (Polarisation of emitted light reports the rotation of a fluorescent probe.)
In data set [3] the target is T1, MBP-USF2 R248E (Homo sapiens) (UniProt Q15853).
T1 sequence (looked up): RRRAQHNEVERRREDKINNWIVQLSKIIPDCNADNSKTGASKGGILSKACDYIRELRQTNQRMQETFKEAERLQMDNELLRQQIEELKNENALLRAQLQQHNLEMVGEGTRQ
The data set is described as follows: fluorescence anisotropy. The conditions noted are these: more than 14-fold reduced; FA: 20 nM FAM-DNA, 20 mM Tris pH 8.0, 50 mM KCl, 2 mM MgCl2, 0.5% glycerol, 4 C, 3 h; recombinant protein; residues 235-346; protein details: 6xHis-MBP N-terminal; label: 5'-FAM on strand 1.

Data set [4] has as its target MBP-USF2 H240E (Homo sapiens) (UniProt Q15853). The data set is described as follows: fluorescence anisotropy. The conditions noted are these: more than 5-fold reduced; FA: 20 nM FAM-DNA, 20 mM Tris pH 8.0, 50 mM KCl, 2 mM MgCl2, 0.5% glycerol, 4 C, 3 h; recombinant protein; residues 235-346; protein details: 6xHis-MBP N-terminal; label: 5'-FAM on strand 1.
For data set [5], the target named is MBP-USF2 K271E (Homo sapiens) (UniProt Q15853). The data set is described as follows: fluorescence anisotropy. As to conditions: more than 9-fold reduced; FA: 20 nM FAM-DNA, 20 mM Tris pH 8.0, 50 mM KCl, 2 mM MgCl2, 0.5% glycerol, 4 C, 3 h; recombinant protein; residues 235-346; protein details: 6xHis-MBP N-terminal; label: 5'-FAM on strand 1.
For data set [6], the target named is MBP-USF2 K271A (Homo sapiens) (UniProt Q15853). The data set is described as follows: fluorescence anisotropy. The conditions noted are these: FA: 20 nM FAM-DNA, 20 mM Tris pH 8.0, 50 mM KCl, 2 mM MgCl2, 0.5% glycerol, 4 C, 3 h; recombinant protein; residues 235-346; protein details: 6xHis-MBP N-terminal; label: 5'-FAM on strand 1.
In data set [7] the target is T2, MBP-USF2 R247E (Homo sapiens) (UniProt Q15853).
T2 sequence (looked up): T1 sequence (looked up) with R13E, E14R
The data set is described as follows: fluorescence anisotropy. As to conditions: more than 20-fold reduced; FA: 20 nM FAM-DNA, 20 mM Tris pH 8.0, 50 mM KCl, 2 mM MgCl2, 0.5% glycerol, 4 C, 3 h; recombinant protein; residues 235-346; protein details: 6xHis-MBP N-terminal; label: 5'-FAM on strand 1.

In data set [8] the target is MBP-USF2_WT (Homo sapiens) (UniProt Q15853). The data set is described as follows: fluorescence anisotropy. As to conditions: WT Kd not in the given text; FA: 20 nM FAM-DNA, 20 mM Tris pH 8.0, 50 mM KCl, 2 mM MgCl2, 0.5% glycerol, 4 C, 3 h; recombinant protein; residues 235-346; protein details: 6xHis-MBP N-terminal; label: 5'-FAM on strand 1.

Substitutions are numbered along the chain they refer to. For some assays here: No signal at the amounts used counts as a negative. For some assays here: A weaker result is weaker than the reference pair of the same experiment. For some assays here: Where a protein sequence is shown, tags need not be part of it. For some assays here: For at least one entry, the source does not settle the construct or the ends of the probe. For some assays here: At least one verdict rests on a figure or table, not on a statement of the authors. Where only a bound is given, the exact number is not on record here.

Usually Kd stands for the equilibrium constant for the complex coming apart.

Consider “GACGGGCACGTGACGCGC (double strand) [Cy3 E-box DNA]”, for which the binding result in data set [1] was “no binding”.

For “GACGGGCACGTGACGCGC (double strand) [FAM E-box DNA]”, the binding result in data set [2] is on record as “binds more weakly”; in data set [8] it was “binds”. The Kd in data set [3] is above 1400 nM; in data set [4] it was above 580 nM; in data set [5] it was above 970 nM; in data set [6] it was above 440 nM; in data set [7], above 2000 nM.
